Some results were stated once for a whole list of compounds, not compound by compound.
Tested on: C. perfringens Cp6 PGN
Type: biochemical, Clostridium perfringens
Conditions: 54D extract, 3× replicates, fresh PGN stock

B1: GH25CPF4969: endolysin sequence, SEQ ID NO: 8 (protein)
chain: KINKRLSTTNVTLNANNPKHIIIHETDNTSKGAGAETHCKAQANGNIGKASVHYYVDDTGVYQAVEHKHATWNCGDGNNRYGINNKNTISIEICVNSDSDYNKAVDNTVELVRYLKNGYYSNCQVVRHYDASRKNCPRRILANGYWNTFLERVNSKDSSSQTPANTSYKGFYESSETRTNATLVGEGSIKVLDEECNHVSGRWIDSLDRLFVIGIYPSRKFIEVVYPAGDKKYHAYIGIEYYNRILFDYHKEYINDDGVTYVWWNASDVNVKDHNEELQPNQKASPMYRTGEWLRITFYRENGIPSDGYVRYEGSQNKKFYENIQYGIVKVNSSLNVRENPNGEVIGSVYKDEKVQVLKEENGWCYIEYSTSKGEKRGYVSSKYIELV
modifications: GH25CPF4969
fold enhancement of PGN degradation activity in 54D algal extract vs PBS, pH 7.0: ≤ 2 fold

Reference: US20220290114A1 (priority 2019, published 2022)
